## Cleaved PARP after 72 h of treatment

From a melanoma drug combination screen (doi:10.1371/journal.pone.0140310); values rounded.

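Human melanoma cell lines in 1,536-well plates were treated with a pair of drugs for 72 h, then fixed, stained and imaged. Values are the share of nuclei positive for cleaved PARP as a percentage of the same share in the DMSO control: 100 is the control level, higher means more apoptosis. Concentrations were fixed for each drug; these are the higher of two levels. No replicate spread is given; individual values may be noisy. The marker varies much from line to line, for technical or biological reasons.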 This is part of the screen, not chosen by result.

All values are for the listed drug together with JZL184 (5000 nM): O=C(Oc1ccc([N+](=O)[O-])cc1)N1CCC(C(O)(c2ccc3c(c2)OCO3)c2ccc3c(c2)OCO3)CC1

Compounds and concentrations:
midostaurin (400 nM): CO[C@@H]1[C@H](N(C)C(=O)c2ccccc2)C[C@H]2O[C@]1(C)n1c3ccccc3c3c4c(c5c6ccccc6n2c5c31)C(=O)NC4
lenalidomide (5000 nM): Nc1cccc2c1CN(C1CCC(=O)NC1=O)C2=O (stereo not given)
A-769662 (10000 nM): N#Cc1c(O)c2c(-c3ccc(-c4ccccc4O)cc3)csc2[nH]c1=O
VX-702 (2000 nM): NC(=O)c1ccc(N(C(N)=O)c2c(F)cccc2F)nc1-c1ccc(F)cc1F
fingolimod (10000 nM): CCCCCCCCc1ccc(CCC(N)(CO)CO)cc1
IMD-0354 (80 nM): O=C(Nc1cc(C(F)(F)F)cc(C(F)(F)F)c1)c1cc(Cl)ccc1O
T0901317 (7000 nM): O=S(=O)(c1ccccc1)N(CC(F)(F)F)c1ccc(C(O)(C(F)(F)F)C(F)(F)F)cc1
BI-78D3 (1000 nM): O=c1[nH]nc(Sc2ncc([N+](=O)[O-])s2)n1-c1ccc2c(c1)OCCO2
sunitinib (2000 nM): CCN(CC)CCNC(=O)c1c(C)[nH]c(/C=C2\C(=O)Nc3ccc(F)cc32)c1C
BMS-536924 (1000 nM): Cc1cc(N2CCOCC2)cc2[nH]c(-c3c(NC[C@@H](O)c4cccc(Cl)c4)cc[nH]c3=O)nc12
AZD7762 (100 nM): NC(=O)Nc1cc(-c2cccc(F)c2)sc1C(=O)N[C@H]1CCCNC1
temozolomide (10000 nM): Cn1nnc2c(C(N)=O)ncn2c1=O
gemcitabine (2 nM): Nc1ccn([C@@H]2O[C@H](CO)[C@@H](O)C2(F)F)c(=O)n1
CP-690550 (5000 nM): C[C@@H]1CCN(C(=O)CC#N)C[C@@H]1N(C)c1ncnc2[nH]ccc12
tipifarnib (50 nM): Cn1cncc1[C@@](N)(c1ccc(Cl)cc1)c1ccc2c(c1)c(-c1cccc(Cl)c1)cc(=O)n2C
perifosine (2000 nM): CCCCCCCCCCCCCCCCCCOP(=O)([O-])OC1CC[N+](C)(C)CC1
nutlin-3 (500 nM): COc1ccc(C2=N[C@@H](c3ccc(Cl)cc3)[C@@H](c3ccc(Cl)cc3)N2C(=O)N2CCNC(=O)C2)c(OC(C)C)c1
U73122 (2000 nM): COc1ccc2c(c1)CCC1C2CCC2(C)C(NCCCCCCN3C(=O)C=CC3=O)CCC12 (stereo not given)
PD173074 (500 nM): CCN(CC)CCCCNc1ncc2cc(-c3cc(OC)cc(OC)c3)c(NC(=O)NC(C)(C)C)nc2n1

Second drug | RVH-421 | WM3526 | COLO 829 | A101D
VX-702 | 172 | 83.5 | 65.7 | 89.7
CP-690550 | 78.0 | 102 | 47.8 | 91.1
lenalidomide | 253 | 51.9 | 32.5 | 194
gemcitabine | 163 | 85.7 | 429 | 131
PD173074 | 77.5 | 156 | 61.1 | 146
fingolimod | 877 | 2430 | 247 | 9090
tipifarnib | 80.0 | 72.4 | 79.0 | 114
IMD-0354 | 60.4 | 113 | 120 | 109
BMS-536924 | 108 | 224 | 54.1 | 107
sunitinib | 156 | 390 | 30.2 | 114
BI-78D3 | 24.4 | 87.6 | 176 | 164
AZD7762 | 110 | 210 | 37.1 | 80.7
perifosine | 103 | 46.8 | 100 | 59.3
temozolomide | 74.0 | 76.9 | 90.8 | 75.4
U73122 | 126 | 74.0 | 44.7 | 61.3
T0901317 | 45.4 | 50.0 | 72.4 | 52.2
A-769662 | 84.4 | 94.7 | 85.5 | 88.3
nutlin-3 | 157 | 33.7 | 105 | 58.2
midostaurin | 55.4 | 193 | 142 | 137

Some entries from above, unchanged:

Second drug	RVH-421	WM3526	COLO 829	A101D
fingolimod	877	2430	247	9090
U73122	126	74.0	44.7	61.3